For this experiment, the target named is recombinant human Bcl-2 protein fragment (human) (UniProt P10415). Nature of the experiment: low-SDS Western blot with anti-gal-7 or anti-Bcl-2 antibody. (In western blotting, separated proteins are transferred to a membrane and probed.)

Amino acid sequences for entries named in this document (tags omitted). A change or cut given only in a name is not applied to a line headed by its entry. Residues count along the entry.
UniProt P10415, residues 1-211: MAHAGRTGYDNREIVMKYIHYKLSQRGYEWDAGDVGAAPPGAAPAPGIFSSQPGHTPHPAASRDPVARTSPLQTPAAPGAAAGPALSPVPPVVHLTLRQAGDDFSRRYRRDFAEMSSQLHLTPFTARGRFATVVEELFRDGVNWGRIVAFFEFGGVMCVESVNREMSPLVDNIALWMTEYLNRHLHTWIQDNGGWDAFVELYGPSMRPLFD
UniProt P47929: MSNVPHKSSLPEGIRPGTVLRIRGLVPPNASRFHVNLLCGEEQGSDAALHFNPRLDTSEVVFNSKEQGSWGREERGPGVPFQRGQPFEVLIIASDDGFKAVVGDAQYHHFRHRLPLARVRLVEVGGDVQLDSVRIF

These are yes or no findings as the source states them, for the method shown. Some binding calls cover weakened binding; strength is not graded here.

The values below come from patent US20180155432A1.

Regarding “recombinant human galectin-7 (from UniProt P47929 1-136)”, the binding entry is recorded as “binds”.
